# Screening data, single-dose tests

Sequences of proteins named here, by UniProt entry; tags and fusion partners are left off. Residues count along the entry.
UniProt P9WFT3, whole entry: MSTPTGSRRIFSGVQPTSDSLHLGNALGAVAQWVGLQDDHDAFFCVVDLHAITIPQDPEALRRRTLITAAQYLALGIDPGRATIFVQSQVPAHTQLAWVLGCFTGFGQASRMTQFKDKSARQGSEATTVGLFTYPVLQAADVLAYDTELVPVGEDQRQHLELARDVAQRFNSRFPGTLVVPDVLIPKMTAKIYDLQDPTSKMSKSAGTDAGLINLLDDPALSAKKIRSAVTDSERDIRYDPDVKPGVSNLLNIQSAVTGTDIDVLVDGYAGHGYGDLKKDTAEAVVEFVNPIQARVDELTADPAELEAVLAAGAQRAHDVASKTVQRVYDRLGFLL
UniProt Q8IDJ8, 1-583: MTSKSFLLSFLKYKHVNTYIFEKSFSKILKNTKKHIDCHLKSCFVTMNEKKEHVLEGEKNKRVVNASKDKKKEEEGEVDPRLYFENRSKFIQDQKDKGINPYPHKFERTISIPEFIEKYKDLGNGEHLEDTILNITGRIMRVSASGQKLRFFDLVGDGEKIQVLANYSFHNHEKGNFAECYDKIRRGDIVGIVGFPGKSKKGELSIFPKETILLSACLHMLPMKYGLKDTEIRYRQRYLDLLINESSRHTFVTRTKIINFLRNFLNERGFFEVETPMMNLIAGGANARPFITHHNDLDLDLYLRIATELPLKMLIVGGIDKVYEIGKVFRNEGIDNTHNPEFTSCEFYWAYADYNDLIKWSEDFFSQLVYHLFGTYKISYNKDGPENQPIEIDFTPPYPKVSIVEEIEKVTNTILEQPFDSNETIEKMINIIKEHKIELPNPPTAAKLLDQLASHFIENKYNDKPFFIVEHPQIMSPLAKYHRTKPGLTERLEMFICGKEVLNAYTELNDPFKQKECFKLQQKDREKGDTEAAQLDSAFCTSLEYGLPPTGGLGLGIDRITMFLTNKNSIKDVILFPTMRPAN
UniProt P9WNZ1, whole entry: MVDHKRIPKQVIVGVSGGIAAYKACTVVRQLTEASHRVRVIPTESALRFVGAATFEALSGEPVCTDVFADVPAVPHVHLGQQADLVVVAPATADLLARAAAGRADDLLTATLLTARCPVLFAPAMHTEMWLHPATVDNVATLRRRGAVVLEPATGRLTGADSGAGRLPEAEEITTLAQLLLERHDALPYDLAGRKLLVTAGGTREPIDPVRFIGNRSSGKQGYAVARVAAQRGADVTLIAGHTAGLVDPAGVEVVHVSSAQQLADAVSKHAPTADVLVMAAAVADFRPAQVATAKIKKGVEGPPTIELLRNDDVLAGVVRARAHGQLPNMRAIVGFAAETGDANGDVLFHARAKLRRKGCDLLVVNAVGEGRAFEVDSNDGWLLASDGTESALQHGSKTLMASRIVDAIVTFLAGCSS
UniProt P9WPC5, whole entry: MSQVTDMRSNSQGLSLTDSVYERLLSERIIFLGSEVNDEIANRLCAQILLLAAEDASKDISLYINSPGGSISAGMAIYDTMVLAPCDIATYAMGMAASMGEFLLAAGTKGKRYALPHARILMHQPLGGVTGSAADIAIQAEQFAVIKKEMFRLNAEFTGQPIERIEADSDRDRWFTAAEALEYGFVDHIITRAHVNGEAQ
UniProt P9WPC3, whole entry partner: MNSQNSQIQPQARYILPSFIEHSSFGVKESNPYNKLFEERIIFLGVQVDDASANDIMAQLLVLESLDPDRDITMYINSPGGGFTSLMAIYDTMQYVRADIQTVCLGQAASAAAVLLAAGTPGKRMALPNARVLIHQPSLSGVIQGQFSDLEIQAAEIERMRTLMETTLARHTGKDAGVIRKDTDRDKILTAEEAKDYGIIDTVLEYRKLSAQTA
UniProt Q4DA54, 1-478: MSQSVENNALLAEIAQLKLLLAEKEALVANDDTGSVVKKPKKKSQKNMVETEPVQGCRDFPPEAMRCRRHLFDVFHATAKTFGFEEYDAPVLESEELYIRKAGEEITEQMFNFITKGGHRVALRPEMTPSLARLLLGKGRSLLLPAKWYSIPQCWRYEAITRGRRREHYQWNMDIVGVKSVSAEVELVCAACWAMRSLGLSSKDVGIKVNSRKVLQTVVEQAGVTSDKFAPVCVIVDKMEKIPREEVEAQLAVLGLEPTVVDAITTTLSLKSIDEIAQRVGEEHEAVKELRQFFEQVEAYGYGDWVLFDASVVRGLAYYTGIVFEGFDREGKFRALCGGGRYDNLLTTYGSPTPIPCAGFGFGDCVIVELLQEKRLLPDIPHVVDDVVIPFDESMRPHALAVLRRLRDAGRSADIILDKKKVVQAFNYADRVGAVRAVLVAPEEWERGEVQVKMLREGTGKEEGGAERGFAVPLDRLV

The values are deposited in ChEMBL (CHEMBL3988442, “University of Dundee, Small-Polar-MMV Screening Library” (2021)).

Results are given as percent effect. The controls that fix the scale are not given in the record; negative values are as filed. This is an unselected part of the compounds tested. A dash means the value is not listed here; it may have been measured.

MtTrpRS: 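Enzyme assay of tryptophanyl-tRNA synthetase; the read-out is not stated. Target: Tryptophan-tRNA ligase, Mycobacterium tuberculosis (UniProt P9WFT3). Tested at 10 µM. Higher most likely means stronger inhibition; the record gives no direction and few retests gave an IC50. About 65,000 compounds were tested under these conditions; 0.098% (about 64) showed 50% or more at least once.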
PfKRS1: 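Enzyme assay of the cytosolic lysyl-tRNA synthetase in 384-well plates, read by luminescence. Target: Lysine-tRNA ligase, Plasmodium falciparum 3D7 (UniProt Q8IDJ8). Concentration: 30 µM. Higher reads as stronger inhibition, judged from the few compounds that gave an IC50. Of about 69,000 compounds tested this way, about 49 (0.071%) reached 50% or more in at least one test.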
CoaBC: 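Enzyme assay of CoaBC with a phosphate dye (Biomol Green) read at 650 nm. Target: Coenzyme A biosynthesis protein CoaBC, Mycobacterium tuberculosis (UniProt P9WNZ1). Compounds at 30 µM. Direction is inferred from only a few compounds that gave an IC50; most scored high, so higher reads as stronger inhibition. Most strong results did not repeat in a second test. Size under these conditions: about 67,000 compounds, about 40 of them at 50% or above in at least one test.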
ClpP1P2: 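Protease assay of ClpP1P2, read by the AMC dye that it sets free. Target: ClpP1P2, Mycobacterium tuberculosis (UniProt P9WPC5 and UniProt P9WPC3). Tested at 50 µM. Direction is inferred from only a few compounds that gave an IC50; most scored high, so higher reads as stronger inhibition. Most other retested compounds had strongly negative values. Of about 69,000 compounds tested this way, about 10 (0.015%) reached 50% or more in at least one test.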
TcHisRS: 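Enzyme assay of histidyl-tRNA synthetase; the read-out is not stated. Target: Histidine-tRNA ligase, Trypanosoma cruzi CL Brener (UniProt Q4DA54). Concentration: 30 µM. The record gives no direction; compounds that gave an IC50 in retests scored well above the rest, so higher reads as stronger inhibition. Size under these conditions: about 69,000 compounds, about 31 of them at 50% or above in at least one test.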

SMILES,MtTrpRS,PfKRS1,CoaBC,ClpP1P2,TcHisRS
Cc1nc(C)n(CC2CCCN(CCOc3ccccc3C#N)C2)n1 (stereo not given),1.089,0.8403,4.348,-4.611,3.152
Cc1ccc(F)cc1-n1c(CCCN2CCOCC2)n[nH]c1=O,2.976,3.633,3.704,-14.92,8.458
CC(C)OCCCN(Cc1ccncc1)Cc1cc(F)cc(F)c1,5.971,-0.1767,6.326,10.91,9.701
CCCc1n[nH]cc1C(=O)NCC1COc2cc(OC)ccc2C1 (stereo not given),-0.618,-5.8,3.831,-0.1811,0
CN(C)c1ccc(C(=O)NCc2ccc(N3CCOCC3)cc2)cn1,-0.1032,-6.297,0.4464,-0.3922,3.867
CCOC(=O)C1CN(S(=O)(=O)CC)Cc2ncn(CC)c21 (stereo not given),-9.881,2.571,-2.664,5.519,5.747
CC(=O)N1CCC(c2cncc(N3CCC(O)C3)n2)CC1 (stereo not given),-11,1.273,1.35,-28.07,15.5
O=C(N[C@@H]1CCN(Cc2ccc(F)cc2F)C[C@H]1O)c1cccnc1,1.528,-0.2982,0,-8.704,-3.125
CN(Cc1nnc(C2CC2)n1C)C1CCN(Cc2ccccc2)C1 (stereo not given),-2.559,-6.717,0.8485,7.302,-9.184
COCC(=O)N1CCCC(C(=O)c2cnn(-c3ccc(F)cc3)c2N)C1 (stereo not given),-2.626,-0.7825,-2.628,21.12,-1.515
COC(=O)c1cccc(C(=O)N2CCN(c3cc(Cl)ccc3C)CC2)n1,-0.000007,3.245,3.73,-12.92,10.55
C[C@@H]1CN(C(=O)c2cc(Cn3cnc4ccccc43)on2)C[C@H](C)O1,1.314,-2.909,2.228,-9.77,2.41
CS(=O)(=O)NC[C@H]1OC[C@@H]2CCN(C(=O)c3cccnc3)C[C@@H]21,-1.953,9.484,-0.3257,-3.976,8.824
CS(=O)(=O)N1CC[C@@H]2[C@@H](CCC(=O)N2CCC2=CCCCC2)C1,-0.8892,3.381,2.571,-1.516,1.117
O=C(NCC1CC1)c1cc(C2CC2)nc2onc(C3CCCNC3)c12 (stereo not given),0.605,4.832,3.158,-3.264,4.142
Cn1ccnc1CN1CCN(Cc2ccc(C#N)cc2F)CC1,2.419,-0.3074,0.3736,-25.36,4.956
COC(=O)Cn1c(=O)nc2n1C(=O)N(c1ccccc1)C2,3.425,5.602,0,-19.42,1.653
CN(C)c1ncccc1C(=O)N1CCN(C2=NCC(C)(C)S2)CC1,0.5187,7.428,6.876,0.1537,15.52
COc1c(CNCc2cccnc2OC(C)C)c(C(C)C)nn1C,-6.867,0.2602,-5.785,2.477,1.63
CSc1ncc(CN2CC(Oc3c(C)cccc3C)C2)cn1,-6.061,3.697,0.6046,-6.099,11.04
CN(C1CCCC1)C(C)(C)C(=O)NCCS(C)(=O)=O,-0.09311,1.163,4.628,-8.303,1.685
COC(=O)NCCCC(=O)NCC1(c2cccc(Cl)c2)CC1,12.22,-5.246,7.073,1.391,0
Cn1cccc1C(=O)NCc1cnc2n1CCN(C(N)=O)CC2,-1.302,12.28,4.886,-11.14,6.863
CCn1nccc1CN(C)c1nc(N)nc2c1nc(C)n2C,6.738,6.354,-0.5741,-17.88,-0.8772
CS(=O)(=O)NC[C@H]1OC[C@@H]2CCN(Cc3ccc(F)cc3)C[C@@H]21,9.759,-5.553,-4.695,15.05,-0.5405
CN1CCN(Cc2ccncc2)C(=O)C12CCN(c1nccs1)CC2,1.618,0.9517,-,-8.252,5.063
COCc1cc(N(C)CCC(O)c2ccccc2)n2nccc2n1 (stereo not given),0.6441,4.629,6.71,-9.55,5.6
Cc1c(NC(=O)c2ccc(Br)cc2)c(C(=O)N(C)C)nn1C,2.461,6.176,-10.62,-3.421,4.348
Cc1cnn(CCNCc2ccc(OCc3cscn3)cc2)c1,0.3621,5.284,-1.653,7.532,18.33
c1cnn(CCCO[C@@H]2CN(C3CCOCC3)[C@@H]3CCCO[C@@H]32)c1,3.989,4.741,-16.15,-4.349,11.43
CCOC(=O)COc1ccc(C(C)=O)c(O)c1,-,0.1151,-4.049,-4.686,5.78

Repeated from the top, 2 entries:

{"smiles": "Cc1nc(C)n(CC2CCCN(CCOc3ccccc3C#N)C2)n1", "stereo": "stereo not given", "MtTrpRS": 1.089, "PfKRS1": 0.8403, "CoaBC": 4.348, "ClpP1P2": -4.611, "TcHisRS": 3.152}
{"smiles": "Cc1ccc(F)cc1-n1c(CCCN2CCOCC2)n[nH]c1=O", "MtTrpRS": 2.976, "PfKRS1": 3.633, "CoaBC": 3.704, "ClpP1P2": -14.92, "TcHisRS": 8.458}